Test results from PubChem BioAssay AID2417 (National Center for Advancing Translational Sciences (NCATS), 2010).
In all, about 140,000 compounds went through this assay and about 4,300 (3.1%) were called active. Inconclusive means that the source gave no clear call. Such entries were picked first, then a sample of the others.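 The calls were made as follows: active = readout at or below -70, meaning at least 70% loss of cells showing the perinucleolar compartment, a nuclear body marking cancer cells; inconclusive = readout between -30 and a set limit; inactive = the rest.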

assay: High Content Assay for Compounds that inhibit the Assembly of the Perinucleolar Compartment; details: PC3M PTB-GFP, PNC prevalence imaging, 16 h; at 10 µM; stronger effect = lower value;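 also: plate controls were DMSO wells for no effect and camptothecin positive control wells for full effect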
Outline: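 Read-out is percentage of cells bearing a perinucleolar compartment, from automated 20x imaging of fixed, Hoechst-stained PC3M PTB-GFP cells. Cells were seeded 4 h, then exposed 16 h to compound (23 nl of library stock) in duplicate plates.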

| SMILES | activity change (PNC), negative = inhibition |
| --- | --- |
| Cc1cc(C)c2c(N)c3cccc(C)c3nc2n1 | active: -92.1% |
| O=[N+]([O-])c1ccc2nc(-[n+]3c(-c4ccccc4)cc(-c4ccccc4)cc3-c3ccccc3)[nH]c2c1 | inconclusive: -48.4% |
| CCNC(=O)/C(C#N)=C/c1c(N2CCN(Cc3ccc4c(c3)OCO4)CC2)nc2c(C)cccn2c1=O | inconclusive: -39.6% |
| O=C(Cc1ccccc1)NCC1CCCO1 (centres undefined) | inactive: 34.7% |
| CC(=O)OCC(=O)[C@H]1CC[C@H]2[C@@H]3CCC4=CC(=O)CC[C@]4(C)[C@H]3CC[C@]12C | inconclusive: -36.9% |
| O=C(NC1CCCCC1)c1cc([N+](=O)[O-])ccc1N1CCOCC1 | inconclusive: -31% |
| O=C(O)C1Nc2c(C(=O)N3CCOCC3)cccc2C2C=CCC12 (centres undefined) | inconclusive: -52.2% |
| CCN(CC)S(=O)(=O)c1ccc(Cl)c(NC(=O)CSc2nnc(-c3cccs3)o2)c1 | inconclusive: -37.2% |
| CC(C)c1ccc(N2C(=O)CC(Sc3ncn[nH]3)C2=O)cc1 (centres undefined) | inactive: -8.51% |
| CC(C)C[C@H](NC(=O)C1(c2ccccc2)CCN(C(=O)[C@H]2CSCN2C(=O)OC(C)(C)C)CC1)C(=O)O | active: -114% |
| COc1ccc(-n2c(C)nc3cc(C(=O)NCCN4CCOCC4)ccc32)cc1 | inconclusive: -60.9% |
| COc1cc(/C=C(\NC(C)=O)C(=O)NC(C)(C)C)ccc1OC(C)=O | inactive: 83.6% |
| C=CCn1c(SCC(=O)Nc2ccc(C(=O)OCC)cc2)nnc1-c1sc(N)nc1C | inconclusive: -31.8% |
| Cc1cc2c(cc1C)N(C(=O)CSC1=NCCS1)C(C)(C)c1ssc(=S)c1-2 | inconclusive: -43.3% |
| CCc1ccccc1NC(=O)Cn1nnc(-c2cccs2)n1 | inconclusive: -42.2% |
| FC(F)(F)c1cccc(Oc2ccc3c(C(F)(F)F)cc(C(F)(F)F)nc3n2)c1 | inconclusive: -34.2% |
| COc1ccccc1C(=O)Nc1ccc(C)cc1C(=O)c1ccccc1 | inconclusive: -43.4% |
| Cc1cccc(N=C2NC(=O)CS2)c1C | inconclusive: -55.3% |
| Cc1ccc(S(=O)(=O)NCCC(=O)N2CCN(Cc3ccccc3)CC2)cc1 | inconclusive: -65.2% |
| Cc1ccc2oc(-c3cccc(NC(=S)NC(=O)/C=C/c4ccco4)c3)nc2c1 | inactive: -14.5% |
| Cc1ccccc1Cn1nc(C)c(NC(=O)C(F)(F)F)c1C | inconclusive: -39.2% |
| CN(CCc1ccccn1)S(=O)(=O)c1ccc2c3c(cccc13)C(=O)N2 | inconclusive: -33.5% |
| CC(C(=O)O)N1C(=O)/C(=C/C=C/c2ccco2)SC1=S (centres undefined) | inactive: -29.2% |

| SMILES | activity change (PNC), negative = inhibition |
| --- | --- |
| Cc1ccc(CSc2ncnc3c2cnn3Cc2ccccc2)cc1 | inactive: 29.1% |
| COc1cccc(-n2c(SCC(=O)c3c[nH]c4ccccc34)nc3ccccc3c2=O)c1 | inactive: -15.1% |
| COC(=O)C1=C(C)N=c2s/c(=C3\C(=O)Nc4ccccc43)c(=O)n2C1c1ccccc1 (centres undefined) | inactive: -15% |
| COc1ccc(C(=O)N2CC3(C)CC2CC(C)(C)C3)cc1OC (centres undefined) | active: -104% |
| C/C(=C\C(=O)c1cccnc1)Nc1ccc(O)cc1 | inactive: 4.72% |
| O=C(Nc1ccc(F)cc1)c1cccnc1NCCc1ccccc1 | inactive: 130% |
| CCN(CC)C(=O)CSc1nc(C)cc(-c2cccs2)c1C#N | inconclusive: -45.7% |
| CC(C)(C)NC(=O)CN1CCC(O)(c2ccc3c(c2)OCO3)CC1 | inconclusive: -68% |
| CC(C)N1CCC(=NNc2ccc(S(=O)(=O)N3CCOCC3)cc2[N+](=O)[O-])CC1 | inactive: -4.1% |
| CC1(C)CC(CC(=O)NC(=S)Nc2ccc([N+](=O)[O-])cc2)C(=O)O1 (centres undefined) | inactive: -1.33% |
| Cc1cccc(OCCCC(=O)NC(C)C)c1 | active: -80.2% |
| N#Cc1ccccc1NC(=O)c1ccc2c(Cl)c3c(nc2c1)CCCC3 | inconclusive: -46% |
| CCOCC(O)CSCc1ccc(Cl)cc1 (centres undefined) | inconclusive: -43.9% |
| COc1cc2c(cc1OC)C(COc1ccc(F)cc1)N(C(=O)c1ccco1)CC2 (centres undefined) | inconclusive: -37.1% |
| CCS(=O)(=O)Nc1c(C(=O)OC)[nH]c2ccccc12 | inconclusive: -35.1% |
| CN(C)c1ccc(N=Nc2ccccc2C(=O)OCC(=O)N2CCCC2)cc1 | inactive: -18.5% |
| CN1CCC(Oc2ccc(Sc3ccccc3)cc2)CC1 | inconclusive: -57% |
| CC/C(=N\NC(=O)CNC(=O)/C=C/c1ccco1)c1ccccc1 | inactive: 9.9% |
| Cc1ccc(Cn2cc(C(=O)c3ccc(F)cc3)c(=O)c3cc4c(cc32)OCCO4)cc1 | inconclusive: -57.5% |
| O=C(Nc1nc(-c2ccccc2)cs1)c1cccc([N+](=O)[O-])c1 | inactive: 20.8% |
| COc1cc2[nH]c(=S)n(CCN3CCOCC3)c(=O)c2cc1OC | inactive: -1.85% |
| O=C(CSc1ccc2nnc(-c3ccccn3)n2n1)N1CCOCC1 | inconclusive: -70.5% |
| Cn1ncc2c(=O)n(CC(=O)NC34CC5CC(CC(C5)C3)C4)cnc21 | inconclusive: -40.8% |

| SMILES | activity change (PNC), negative = inhibition |
| --- | --- |
| Cn1c(=O)c2c(nc(N3CCN(c4ccccc4)CC3)n2CCCc2ccccc2)n(C)c1=O | inactive: -18.3% |
| Cc1onc(-c2c(F)cccc2Cl)c1C(=O)NC(=S)NC1CCSC1=O (centres undefined) | inactive: 36.7% |
| Cc1ccc(NC(=O)CNS(=O)(=O)c2cccs2)cc1F | inconclusive: -47.2% |
| O=C(CCc1nc2ccccc2n1-c1ccccc1)NCCO | inactive: 29.8% |
| Cc1ccccc1N1CCN(CCCOc2ccc3c(C)cc(=O)oc3c2)CC1 | inactive: -23.3% |
| O=C(CSc1nnc(-c2ccccc2)n1-c1ccccc1)c1cccs1 | inactive: 20.9% |
| CCN1C(=O)/C(=C2/C=CC=CN2C)OC1=S | inconclusive: -36.8% |
| C=CCn1c(-c2csc3c2CCC(C)C3)n[nH]c1=S (centres undefined) | inconclusive: -51.9% |
| O=C1C(c2cc(=O)c3ccccc3[nH]2)=C(O)c2ccccc21 | inactive: 26.4% |
| CCOC(=O)C1=C(N)OC2=C(C(=O)CC(C)(C)C2)C1c1cccs1 (centres undefined) | inactive: 9.77% |
| O=C(Nc1ccc2c(c1)oc1ccccc12)N1CCOCC1 | inconclusive: -43.6% |
| CC(=O)c1cccc(NC(=O)c2ccco2)c1 | inactive: 33.6% |
| COC(=O)c1ccc(Sc2ccccn2)c([N+](=O)[O-])c1 | inconclusive: -34.2% |
| C=CCc1cccc2cc(C(=O)NC3=C(C#N)CCC3)c(=O)oc12 | active: -124% |
| CCC(=O)Nc1cc(C)c(NC(=O)c2ccco2)cn1 | inactive: 1.44% |
| COC(=O)c1ccc(-n2nnnc2SCc2nn[nH]n2)cc1 | inconclusive: -46.3% |
| COc1cc(-c2nnc(-c3cc(OC)c(OC)c(OC)c3)o2)cc(OC)c1OC | active: -100% |
| COCCC(=O)NNS(=O)(=O)c1ccc(Cl)cc1 | inconclusive: -56% |
| CC(C)Cn1c2c(c(O)c(C(=O)Nc3ncccc3O)c1=O)CCCC2 | active: -90.9% |
| OC1(c2cccc(C(F)(F)F)c2)CCN(Cc2nnnn2CCc2ccccc2)CC1 | inconclusive: -56.6% |
| O=C1CC(c2ccco2)Cc2nc(N3CCN(Cc4ccc5c(c4)OCO5)CC3)ncc21 (centres undefined) | inactive: -28% |
| Cn1nnnc1SCc1nc2ccccc2s1 | inconclusive: -48.9% |
| COC(=O)CNC(=O)COC(=O)C(Cc1ccccc1)NC(=O)c1ccco1 (centres undefined) | active: -115% |

| SMILES | activity change (PNC), negative = inhibition |
| --- | --- |
| O=C1[C@@H]2[C@H](C(=O)N1Cc1cccnc1)[C@H]1C=C[C@@H]2C1 | inconclusive: -48.9% |
| O=C(N/N=C/c1ccc2c(c1)OCO2)c1cc(-c2ccccc2Cl)nc2ccccc12 | inactive: -18.4% |
| Cc1cc(-c2csc(NC(=O)c3cccc(S(=O)(=O)N(C)C)c3)n2)c(C)n1-c1ccccc1 | inactive: 25.5% |
| Cc1ccccc1-n1nc(C(=O)c2cccs2)cc(-c2nc3ccccc3[nH]2)c1=N | active: -100% |
| COc1ccc(-c2cc(C(=O)O)c3sc(N4CCCCC4)nc3n2)cc1OC | inconclusive: -42.1% |
| N#Cc1ccccc1NC(=O)Nc1cccc(Cl)c1 | inconclusive: -45.7% |
| Cc1cc(C)cc(N(CCC(=O)O)S(=O)(=O)c2ccc(Cl)cc2)c1 | inconclusive: -50.1% |
| Cc1ccc(CNC(=O)c2sccc2-n2cccc2)cc1 | inconclusive: -34.7% |
| Cc1ccc(Cn2c(=O)c3c(nc4n3CCN4Cc3ccco3)n(C)c2=O)cc1 | active: -100% |
| Cc1cc(C)c2c(C)c(C(=O)NCc3ccncc3)oc2c1 | active: -100% |
| Cc1ccc(CNC(=O)C2CCN(S(=O)(=O)N3CCOCC3)CC2)cc1 | inconclusive: -41.6% |
| CCC(C)(C)NC(=O)C(c1ccccc1F)N(Cc1ccco1)C(=O)c1csnn1 (centres undefined) | inconclusive: -52.5% |
| COCCN(CC(=O)Nc1cccc(C)c1)S(=O)(=O)c1ccc(S(=O)(=O)N2CCCC2)cc1 | inconclusive: -37.6% |
| CCN(CC)CCn1c2ccc(F)cc2c2nc(C)sc21 | inconclusive: -53% |
| O=C(CN1c2ccccc2Sc2ccccc21)NNC(=S)Nc1ccc(Cl)cc1Cl | inactive: -11.6% |
| COc1ccc(CNC(=O)CN(Cc2ccc(Cl)cc2)S(=O)(=O)c2ccccc2)cc1 | inconclusive: -39.7% |
| CCN(CC)c1ccc(/C=N/NC(=O)c2c(Cl)c(C)nn2C)cc1 | inconclusive: -35.9% |
| Cc1nc2c(-c3ccccc3)c(C)nn2c(C)c1CC(=O)O | inconclusive: -47.8% |
| COc1cc(C)c(C#N)c(OC)n1 | inconclusive: -39.6% |
| O=C(Cn1cnc2ccccc2c1=O)NCCC(=O)N1CCN(c2ccccc2)CC1 | inconclusive: -66.9% |
